For three molecules, binding results are on record in article PMC6857042.

By UniProt entry, the sequences of proteins in these tests, tags left out.
UniProt Q9HB71: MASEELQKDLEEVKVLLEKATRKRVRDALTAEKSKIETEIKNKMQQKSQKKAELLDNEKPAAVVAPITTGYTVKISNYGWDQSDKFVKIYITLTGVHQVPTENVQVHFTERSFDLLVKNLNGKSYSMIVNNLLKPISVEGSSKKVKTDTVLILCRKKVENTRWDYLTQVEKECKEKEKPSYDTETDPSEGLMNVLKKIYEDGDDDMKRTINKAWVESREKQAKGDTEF
UniProt Q9UNE7: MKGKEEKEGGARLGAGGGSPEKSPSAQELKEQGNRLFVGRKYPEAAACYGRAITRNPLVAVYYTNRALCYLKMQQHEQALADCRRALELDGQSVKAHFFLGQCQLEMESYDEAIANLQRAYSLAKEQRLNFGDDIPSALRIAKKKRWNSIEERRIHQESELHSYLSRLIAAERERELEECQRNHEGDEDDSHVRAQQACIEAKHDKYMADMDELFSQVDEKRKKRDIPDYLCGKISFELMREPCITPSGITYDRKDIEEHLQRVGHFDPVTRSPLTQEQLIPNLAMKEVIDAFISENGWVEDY

For the assay, the target named is SFB-tagged CACYBP (calcyclin-binding protein) (human) (UniProt Q9HB71). As to the kind of experiment: affinity purification with mass spectrometry; two-step TAP of SFB-CACYBP from transfected 293T cells (Streptavidin Sepharose, biotin elution, S-protein agarose) in NETN buffer at 4°C; SDS-PAGE, silver staining, bands excised, MS.

These are yes or no findings as the source states them, for the method shown. In cells and extracts the contact can be indirect. These calls come from enrichment with a bait or labelling near it, and not all partners need be listed.

Take STUB1 (from UniProt Q9UNE7 1-303): the binding result is given as “binds”.

B1: endogenous RNF41 (293T) (protein, UniProt Q9H4P4 1-317)
chain: MGYDVTRFQGDVDEDLICPICSGVLEEPVQAPHCEHAFCNACITQWFSQQQTCPVDRSVVTVAHLRPVPRIMRNMLSKLQIACDNAVFGCSAVVRLDNLMSHLSDCEHNPKRPVTCEQGCGLEMPKDELPNHNCIKHLRSVVQQQQTRIAELEKTSAEHKHQLAEQKRDIQLLKAYMRAIRSVNPNLQNLEETIEYNEILEWVNSLQPARVTRWGGMISTPDAVLQAVIKRSLVESGCPASIVNELIENAHERSWPQGLATLETRQMNRRYYENYVAKRIPGKQAVVVMACENQHMGDDMVQEPGLVMIFAHGVEEI
With B1, the binding entry is recorded as “binds”.

B2: TRAF3IP1 (protein, UniProt Q8TDR0 1-691)
chain: MNAAVVRRTQEALGKVIRRPPLTEKLLSKPPFRYLHDIITEVIRMTGFMKGLYTDAEMKSDNVKDKDAKISFLQKAIDVVVMVSGEPLLAKPARIVAGHEPERTNELLQIIGKCCLNKLSSDDAVRRVLAGEKGEVKGRASLTSRSQELDNKNVREEESRVHKNTEDRGDAEIKERSTSRDRKQKEELKEDRKPREKDKDKEKAKENGGNRHREGERERAKARARPDNERQKDRGNRERDRDSERKKETERKSEGGKEKERLRDRDRERDRDKGKDRDRRRVKNGEHSWDLDREKNREHDKPEKKSASSGEMSKKLSDGTFKDSKAETETEISTRASKSLTTKTSKRRSKNSVEGRKEDNISAKSLDSIVSGINNEPNQETTTSEIGTKEANINSTSISDDNSASLRCENIQPNPTEKQKGDSTSDAEGDAGPAGQDKSEVPETPEIPNELSSNIRRIPRPGSARPAPPRVKRQDSMEALQMDRSGSGKTVSNVITESHNSDNEEDDQFVVEAAPQLSEMSEIEMVTAVELEEEEKHGGLVKKILETKKDYEKLQQSPKPGEKERSLFESAWKKEKDIVSKEIEKLRTSIQTLCKSALPLGKIMDYIQEDVDAMQNELQMWHSENRQHAEALQQEQRITDCAVEPLKAELAELEQLIKDQQDKICAVKANILKNEEKIQKMVYSINLTSRR
With B2, the binding entry is recorded as “binds”.
